Laboratory results as given in PMC8511950.
These are yes or no findings as the source states them, for the method shown. In cells and extracts the contact can be indirect. Some results given as binding are weak or reduced against the parent protein; the word gives no strength.

Amino acid sequences for entries named in this document (tags omitted).
UniProt P16370: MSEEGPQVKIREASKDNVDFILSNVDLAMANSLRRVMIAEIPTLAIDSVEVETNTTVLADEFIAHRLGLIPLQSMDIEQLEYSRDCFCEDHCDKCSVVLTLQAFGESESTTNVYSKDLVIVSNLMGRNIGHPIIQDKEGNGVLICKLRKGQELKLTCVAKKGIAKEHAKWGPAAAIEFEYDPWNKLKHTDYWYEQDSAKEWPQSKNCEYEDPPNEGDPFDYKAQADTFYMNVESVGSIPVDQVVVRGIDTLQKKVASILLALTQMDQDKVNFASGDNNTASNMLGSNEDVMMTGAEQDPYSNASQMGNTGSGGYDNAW
UniProt P32783: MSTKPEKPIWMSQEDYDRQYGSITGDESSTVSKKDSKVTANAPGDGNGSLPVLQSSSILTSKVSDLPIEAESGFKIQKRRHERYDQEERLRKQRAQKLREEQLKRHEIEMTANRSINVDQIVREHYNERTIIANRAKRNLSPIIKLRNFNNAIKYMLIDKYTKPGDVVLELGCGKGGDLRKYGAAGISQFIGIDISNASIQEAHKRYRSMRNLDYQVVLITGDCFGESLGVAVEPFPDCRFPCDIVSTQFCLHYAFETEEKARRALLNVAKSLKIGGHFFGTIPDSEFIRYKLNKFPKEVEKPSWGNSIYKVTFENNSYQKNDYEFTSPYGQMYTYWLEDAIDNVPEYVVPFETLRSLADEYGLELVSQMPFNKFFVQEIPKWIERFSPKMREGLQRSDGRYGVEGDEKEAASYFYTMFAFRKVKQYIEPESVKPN
UniProt Q01159: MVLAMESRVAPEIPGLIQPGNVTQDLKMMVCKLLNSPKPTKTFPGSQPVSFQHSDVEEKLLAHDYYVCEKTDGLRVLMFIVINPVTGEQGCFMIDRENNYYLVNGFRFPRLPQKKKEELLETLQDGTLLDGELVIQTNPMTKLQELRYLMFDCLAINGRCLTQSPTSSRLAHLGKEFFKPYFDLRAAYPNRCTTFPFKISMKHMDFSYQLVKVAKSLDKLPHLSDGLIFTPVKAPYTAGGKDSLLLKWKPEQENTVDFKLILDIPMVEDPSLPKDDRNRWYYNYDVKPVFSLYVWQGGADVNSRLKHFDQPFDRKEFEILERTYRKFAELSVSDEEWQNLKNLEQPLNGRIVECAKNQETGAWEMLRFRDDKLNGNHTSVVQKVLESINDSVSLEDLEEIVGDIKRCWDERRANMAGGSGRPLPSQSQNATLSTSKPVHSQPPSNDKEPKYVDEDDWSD
UniProt P32657: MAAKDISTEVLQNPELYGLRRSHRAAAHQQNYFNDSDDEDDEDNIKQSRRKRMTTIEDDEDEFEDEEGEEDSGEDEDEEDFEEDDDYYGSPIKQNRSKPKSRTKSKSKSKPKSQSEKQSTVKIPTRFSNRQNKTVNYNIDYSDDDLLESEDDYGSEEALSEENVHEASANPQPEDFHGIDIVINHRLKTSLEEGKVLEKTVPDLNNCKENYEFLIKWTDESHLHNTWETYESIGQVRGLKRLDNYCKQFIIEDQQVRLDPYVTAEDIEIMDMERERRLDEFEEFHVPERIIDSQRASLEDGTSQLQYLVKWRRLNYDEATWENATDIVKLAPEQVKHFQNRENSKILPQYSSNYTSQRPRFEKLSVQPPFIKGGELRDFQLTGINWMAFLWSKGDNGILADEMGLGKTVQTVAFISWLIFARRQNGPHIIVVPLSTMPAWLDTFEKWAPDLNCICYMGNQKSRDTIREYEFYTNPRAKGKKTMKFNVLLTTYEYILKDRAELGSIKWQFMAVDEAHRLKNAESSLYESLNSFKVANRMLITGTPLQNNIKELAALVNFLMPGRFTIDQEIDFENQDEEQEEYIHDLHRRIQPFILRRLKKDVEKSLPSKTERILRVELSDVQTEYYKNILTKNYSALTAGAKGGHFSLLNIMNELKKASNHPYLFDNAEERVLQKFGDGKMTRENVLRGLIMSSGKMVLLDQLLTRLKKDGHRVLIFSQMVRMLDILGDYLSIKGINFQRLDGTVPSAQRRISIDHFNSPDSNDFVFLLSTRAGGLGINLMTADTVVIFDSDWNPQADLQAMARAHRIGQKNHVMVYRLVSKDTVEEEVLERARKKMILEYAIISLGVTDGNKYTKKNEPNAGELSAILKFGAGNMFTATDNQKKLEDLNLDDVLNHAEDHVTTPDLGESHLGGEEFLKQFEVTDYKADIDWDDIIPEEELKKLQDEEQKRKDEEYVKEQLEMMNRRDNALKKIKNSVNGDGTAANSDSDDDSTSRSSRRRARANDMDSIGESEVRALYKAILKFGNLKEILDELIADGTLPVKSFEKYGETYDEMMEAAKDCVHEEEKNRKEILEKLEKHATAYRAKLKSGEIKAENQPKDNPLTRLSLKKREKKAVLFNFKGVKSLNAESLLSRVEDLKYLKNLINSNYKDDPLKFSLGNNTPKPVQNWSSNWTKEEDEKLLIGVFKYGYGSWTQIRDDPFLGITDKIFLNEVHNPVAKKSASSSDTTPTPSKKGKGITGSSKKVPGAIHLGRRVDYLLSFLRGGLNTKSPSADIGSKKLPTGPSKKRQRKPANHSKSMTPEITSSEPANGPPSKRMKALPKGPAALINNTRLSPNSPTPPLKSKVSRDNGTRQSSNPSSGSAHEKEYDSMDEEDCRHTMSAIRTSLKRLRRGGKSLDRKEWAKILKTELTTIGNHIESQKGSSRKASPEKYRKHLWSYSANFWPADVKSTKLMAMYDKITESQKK
UniProt P24783: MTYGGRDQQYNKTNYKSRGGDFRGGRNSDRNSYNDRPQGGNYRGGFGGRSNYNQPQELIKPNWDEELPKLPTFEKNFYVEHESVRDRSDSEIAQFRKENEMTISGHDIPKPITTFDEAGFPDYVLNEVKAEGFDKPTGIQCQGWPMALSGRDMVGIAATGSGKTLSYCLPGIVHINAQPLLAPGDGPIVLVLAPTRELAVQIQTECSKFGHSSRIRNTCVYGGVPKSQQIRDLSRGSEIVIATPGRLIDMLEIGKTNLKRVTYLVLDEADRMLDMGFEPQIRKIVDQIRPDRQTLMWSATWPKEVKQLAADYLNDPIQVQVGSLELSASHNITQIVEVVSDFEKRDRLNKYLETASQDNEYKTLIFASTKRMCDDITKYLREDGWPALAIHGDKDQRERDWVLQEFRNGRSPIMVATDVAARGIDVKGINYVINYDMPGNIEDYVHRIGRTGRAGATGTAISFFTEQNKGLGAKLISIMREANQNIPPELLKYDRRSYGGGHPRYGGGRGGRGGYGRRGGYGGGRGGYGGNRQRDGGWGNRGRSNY

biological target: FLAG-tagged Rpb3 (S. cerevisiae) (UniProt P16370); experiment: co-IP; Rpb3-FLAG precipitated with anti-Flag agarose from whole cell lysates of uncrosslinked wildtype and spt6-1004 cells at 30 °C and after the shift to 37 °C; IP buffer 20 mM Hepes-KOH pH 7.6, 125 mM potassium acetate, 1% NP-40; 2 h at 4 °C; Western blot

binding | Substance
binds | Abd1 (from UniProt P32783 1-436) (enzyme)
binds | Ceg1 (from UniProt Q01159 1-459) (enzyme)
binds | Chd1 (from UniProt P32657 1-1468)
binds | Dbp2 (from UniProt P24783 1-546)
